Source: PubChem BioAssay AID1259424 (University of Nebraska Medical Center, 2018)
This is a random part of about 14,000 reagents. 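Higher correlation or smaller distance means closer resemblance to KSR1 loss; control wells, including KSR1 knockdowns, recur on many plates.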 Not all columns of the deposit are shown. No sequences are given here. Not stated in the record: the time to read-out.

Test: 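Seek colon cancer survival genes behaving like KSR1, using a six-gene signature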 (primary screen)
Cells: human HCT116 colon cancer cells
Reagent: siRNA pool against human genes, 50 nM
Measurement: 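Log2 levels of six mRNAs (branched-DNA multiplex), adjusted by two reference genes and the non-targeting median, then scored against the average KSR1 knockdown pattern as Pearson r and euclidean distance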
Scale: mean correlation with KSR1 profile: higher = expression change more like KSR1 knockdown; mean distance from KSR1 profile: higher = expression change less like KSR1 knockdown

UNC5B
- mean correlation with KSR1 profile: 0.117
- mean distance from KSR1 profile: 2.44

LEPROTL1
- mean correlation with KSR1 profile: -0.238
- mean distance from KSR1 profile: 2.81

ABCC9
- mean correlation with KSR1 profile: -0.0538
- mean distance from KSR1 profile: 1.17

SMN1
- mean correlation with KSR1 profile: 0.325
- mean distance from KSR1 profile: 1.91

FANCG
- mean correlation with KSR1 profile: 0.0848
- mean distance from KSR1 profile: 2.41

GNA13
- mean correlation with KSR1 profile: 0.692
- mean distance from KSR1 profile: 3.7

SLC24A3
- mean correlation with KSR1 profile: 0.58
- mean distance from KSR1 profile: 5.14

PLEKHJ1
- mean correlation with KSR1 profile: -0.254
- mean distance from KSR1 profile: 2.15

SLC27A3
- mean correlation with KSR1 profile: -0.686
- mean distance from KSR1 profile: 2.53

FANCF
- mean correlation with KSR1 profile: -0.475
- mean distance from KSR1 profile: 4.24

QSER1
- mean correlation with KSR1 profile: -0.55
- mean distance from KSR1 profile: 2.16

PDIA4
- mean correlation with KSR1 profile: -0.0173
- mean distance from KSR1 profile: 4.84

CABP1
- mean correlation with KSR1 profile: -0.168
- mean distance from KSR1 profile: 2.98

XBP1
- mean correlation with KSR1 profile: -0.587
- mean distance from KSR1 profile: 2.65

TMEM98
- mean correlation with KSR1 profile: 0.575
- mean distance from KSR1 profile: 1.98

UPK1B
- mean correlation with KSR1 profile: 0.194
- mean distance from KSR1 profile: 1.08

TM2D3
- mean correlation with KSR1 profile: -0.0539
- mean distance from KSR1 profile: 2.13

MC2R
- mean correlation with KSR1 profile: 0.905
- mean distance from KSR1 profile: 1.52

RTBDN
- mean correlation with KSR1 profile: 0.336
- mean distance from KSR1 profile: 2.86

REXO5
- mean correlation with KSR1 profile: 0.299
- mean distance from KSR1 profile: 2.01

MIS18A
- mean correlation with KSR1 profile: 0.212
- mean distance from KSR1 profile: 3.37

NELFB
- mean correlation with KSR1 profile: 0.235
- mean distance from KSR1 profile: 2.81

IL36B
- mean correlation with KSR1 profile: 0.726
- mean distance from KSR1 profile: 1.07

PKD2
- mean correlation with KSR1 profile: 0.734
- mean distance from KSR1 profile: 1.19

DLK1
- mean correlation with KSR1 profile: 0.39
- mean distance from KSR1 profile: 1.98

ZDHHC8
- mean correlation with KSR1 profile: 0.796
- mean distance from KSR1 profile: 2.32

THUMPD1
- mean correlation with KSR1 profile: -0.467
- mean distance from KSR1 profile: 1.69

WDHD1
- mean correlation with KSR1 profile: -0.315
- mean distance from KSR1 profile: 1.98
